Data from the supplement of paper PMC12819154, “High-throughput peptide-centric local stability assay extends protein–ligand identification to membrane proteins, tissues and bacteria” (Nature Structural & Molecular Biology, 2025).
This is a selection; strong and weak results do not stand in their true shares. Small differences around the control level are noise.

The chains behind the UniProt entries cited, without tags or fusion partners. Where a name states a change or a piece, a line headed by the entry shows the natural chain unless it says otherwise.
UniProt P76586: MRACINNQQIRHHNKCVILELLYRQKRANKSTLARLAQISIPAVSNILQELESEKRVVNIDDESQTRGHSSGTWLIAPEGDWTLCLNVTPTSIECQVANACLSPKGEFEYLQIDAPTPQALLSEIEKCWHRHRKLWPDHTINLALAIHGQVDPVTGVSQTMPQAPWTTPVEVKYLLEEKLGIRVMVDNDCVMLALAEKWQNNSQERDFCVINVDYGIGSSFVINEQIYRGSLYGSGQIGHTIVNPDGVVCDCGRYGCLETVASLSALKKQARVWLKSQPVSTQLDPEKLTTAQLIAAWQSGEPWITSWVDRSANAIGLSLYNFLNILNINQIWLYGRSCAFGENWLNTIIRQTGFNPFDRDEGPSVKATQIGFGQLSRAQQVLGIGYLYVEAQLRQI
UniProt P75783: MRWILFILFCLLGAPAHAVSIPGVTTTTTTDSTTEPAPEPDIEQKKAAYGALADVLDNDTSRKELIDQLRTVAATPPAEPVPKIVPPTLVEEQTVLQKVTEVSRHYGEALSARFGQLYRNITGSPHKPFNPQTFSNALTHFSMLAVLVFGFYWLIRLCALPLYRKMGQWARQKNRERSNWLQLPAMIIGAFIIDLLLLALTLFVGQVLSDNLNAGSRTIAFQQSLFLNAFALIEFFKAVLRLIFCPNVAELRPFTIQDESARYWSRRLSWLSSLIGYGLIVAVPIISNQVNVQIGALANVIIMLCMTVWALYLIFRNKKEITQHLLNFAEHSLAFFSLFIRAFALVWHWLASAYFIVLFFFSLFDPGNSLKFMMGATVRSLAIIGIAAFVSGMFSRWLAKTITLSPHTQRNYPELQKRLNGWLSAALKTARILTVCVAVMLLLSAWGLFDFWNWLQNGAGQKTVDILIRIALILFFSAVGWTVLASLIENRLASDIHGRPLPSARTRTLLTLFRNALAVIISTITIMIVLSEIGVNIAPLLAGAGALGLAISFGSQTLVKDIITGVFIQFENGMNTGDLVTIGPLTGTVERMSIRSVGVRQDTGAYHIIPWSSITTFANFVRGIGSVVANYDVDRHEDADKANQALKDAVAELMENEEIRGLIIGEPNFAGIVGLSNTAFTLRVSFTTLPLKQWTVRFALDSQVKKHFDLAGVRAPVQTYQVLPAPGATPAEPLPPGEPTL
UniProt P76548: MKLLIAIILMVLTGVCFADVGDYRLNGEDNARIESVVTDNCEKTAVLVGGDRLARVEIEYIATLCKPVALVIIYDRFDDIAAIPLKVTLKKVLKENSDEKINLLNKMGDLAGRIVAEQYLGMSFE
UniProt P76372: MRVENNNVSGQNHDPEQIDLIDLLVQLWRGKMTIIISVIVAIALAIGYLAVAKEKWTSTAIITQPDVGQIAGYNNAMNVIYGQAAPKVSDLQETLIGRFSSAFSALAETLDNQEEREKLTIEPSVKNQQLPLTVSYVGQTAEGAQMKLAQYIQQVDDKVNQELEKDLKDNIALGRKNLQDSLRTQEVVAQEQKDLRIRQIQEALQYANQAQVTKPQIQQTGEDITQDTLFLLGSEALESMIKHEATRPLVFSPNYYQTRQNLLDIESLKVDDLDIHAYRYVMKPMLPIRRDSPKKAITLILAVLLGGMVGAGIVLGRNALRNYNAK
UniProt P76176: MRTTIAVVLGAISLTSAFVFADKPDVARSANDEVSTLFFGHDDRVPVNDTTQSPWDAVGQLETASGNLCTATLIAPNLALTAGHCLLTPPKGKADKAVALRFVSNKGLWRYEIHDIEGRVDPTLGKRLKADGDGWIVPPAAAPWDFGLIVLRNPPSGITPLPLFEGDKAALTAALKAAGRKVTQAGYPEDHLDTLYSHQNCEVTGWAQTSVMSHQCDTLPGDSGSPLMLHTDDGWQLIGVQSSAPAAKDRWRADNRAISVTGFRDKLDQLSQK
UniProt P75913: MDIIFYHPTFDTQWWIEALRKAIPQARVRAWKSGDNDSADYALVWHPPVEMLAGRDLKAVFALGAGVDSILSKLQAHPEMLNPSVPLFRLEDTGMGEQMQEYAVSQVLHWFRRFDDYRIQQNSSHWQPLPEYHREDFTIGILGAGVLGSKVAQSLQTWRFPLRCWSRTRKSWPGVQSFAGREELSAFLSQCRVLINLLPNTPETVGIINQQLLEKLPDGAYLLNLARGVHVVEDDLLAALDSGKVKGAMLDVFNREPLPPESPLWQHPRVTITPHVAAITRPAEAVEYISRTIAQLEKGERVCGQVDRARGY

These targets were tested with Nc1ncnc2c1ncn2[C@@H]1O[C@H](COP(=O)(O)OP(=O)(O)OP(=O)(O)O)[C@@H](O)[C@H]1O [adenosine 5'-triphosphate] (assay: log2 fold change of tryptic peptide abundance, ligand vs vehicle (limited proteolysis) (log2 ratio); higher = more trypsin-susceptible (destabilized)). Conditions: ligand concentration: 5 mM; sample: E. coli desalted lysate; replicate design: treated before aliquoting.
Procedure: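 HT-PELSA: desalted E. coli K-12 BW25113 lysate (with 12 mM MgCl2) incubated with 5 mM ATP (pH 7) or water for 30 min at 25 C, then a 4 min trypsin pulse at 22 C. Peptides were quantified by DIA-MS (4 replicates). Value is the peptide log2 fold change (treated/control); negative = stabilized. Scale: negative = ligand-stabilized region.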
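Further: lysate desalted by size exclusion to strip endogenous ATP, peptide intensities built from DIA-NN precursor signals, and peptides missing any value discarded before comparison.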

“UniProt P76586 (peptide sequence: VVNIDDESQTR, peptide start residue: 57)” was tested. Which log2 fold change did it give?
The log2 fold change was -0.282.

For “UniProt P75783 (peptide sequence: ELIDQLR, peptide start residue: 64)”, which log2 fold change is on record?
Its log2 fold change is 0.331.

For “UniProt P76548 (peptide sequence: IESVVTDNCEK, peptide start residue: 33)”, which log2 fold change is on record?
Its log2 fold change is 0.32.

For “UniProt P76372 (peptide sequence: QNLLDIESLKVDDLDIHAYR, peptide start residue: 260)”, which log2 fold change is on record?
Its log2 fold change is 0.439.

How did the log2 fold change turn out when “UniProt P76176 (peptide sequence: YEIHDIEGR, peptide start residue: 111)” was run?
Its log2 fold change is -0.336.

With “UniProt P75913 (peptide sequence: GVHVVEDDLLAALDSGKVK, peptide start residue: 228)” as the target, how does the log2 fold change read?
The log2 fold change was 0.637.
